Results on two molecules are retold here after patent US20160339110A1.

By UniProt entry, the sequences of proteins in these tests, tags left out. Residues count along the entry.
UniProt Q99376, residues 87-761: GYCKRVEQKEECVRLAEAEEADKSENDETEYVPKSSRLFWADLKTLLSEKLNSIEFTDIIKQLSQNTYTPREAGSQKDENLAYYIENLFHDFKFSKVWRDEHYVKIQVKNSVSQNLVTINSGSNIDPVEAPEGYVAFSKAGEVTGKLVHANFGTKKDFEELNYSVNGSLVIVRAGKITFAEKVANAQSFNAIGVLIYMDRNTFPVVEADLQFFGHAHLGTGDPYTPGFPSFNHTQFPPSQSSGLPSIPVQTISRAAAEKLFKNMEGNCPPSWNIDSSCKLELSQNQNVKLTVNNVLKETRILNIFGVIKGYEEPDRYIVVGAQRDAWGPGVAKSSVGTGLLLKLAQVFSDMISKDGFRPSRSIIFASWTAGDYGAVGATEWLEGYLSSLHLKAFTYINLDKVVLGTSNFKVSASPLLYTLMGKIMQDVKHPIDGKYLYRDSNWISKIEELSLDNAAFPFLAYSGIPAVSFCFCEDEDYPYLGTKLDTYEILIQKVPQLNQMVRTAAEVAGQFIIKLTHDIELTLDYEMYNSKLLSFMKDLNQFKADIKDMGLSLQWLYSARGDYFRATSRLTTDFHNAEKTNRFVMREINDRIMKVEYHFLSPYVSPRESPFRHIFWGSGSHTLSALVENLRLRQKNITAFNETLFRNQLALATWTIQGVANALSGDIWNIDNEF

No constants are given. Whether binding was seen depends on the method and setting. Some entries that bind do so weakly or less than the wild type.

Experiment [1] deals with ectodomain of rat TfR1 (rat) (UniProt Q99376). The experiment can be described thus: ELISA.
Experiment [2] shares this target. The experiment can be described thus: ELISA, plate coated with 5 ug/ml ectodomain of TfR1, detection with HRP-conjugated protein L.

B1: tetrazine-conjugated scFv specific for TfR1 (scFv)
scFv: DIVITQSPSSLSASLGDTILITCHASQNINVWLSWFQQKPGNAPKLLIYKASNLHTGVPSRFSGSGSGTGFTLTISSLQPEDIATYYCQQGQSYPWTFGGGTKLEIKRGSTSGSGKPGSGEGSTKGQVQLQQPGAALVRPGASMRLSCKASGYSFTTYWMNWVKQRPGQGLELIGMIHPSDSEVRLNQKFKDKATLTVDTSSSTAYMQLNSPTSEDSAVYYCARFGLDYWGQGTTLTVSSGGGGSGGGGSC
modifications: C-terminal cysteine conjugated with Mal-PEG4-tetrazine
Regarding B1, the binding entry in experiment [1] was “binds”.

B2: scFv of mAb specific for ectodomain of TfR1 (VL and VH from monoclonal antibody OX26) (scFv)
scFv: B1 scFv
In the case of B2, the binding result in experiment [1] and in experiment [2] was “binds” throughout.
